Among the data in publication PMC9103046 are binding values, retold here.

In assay [1] the target is T1, St13 (mouse (endogenous in pancreatic acinar cells of PRSS1Tg mice)) (UniProt Q99L47).
T1 sequence: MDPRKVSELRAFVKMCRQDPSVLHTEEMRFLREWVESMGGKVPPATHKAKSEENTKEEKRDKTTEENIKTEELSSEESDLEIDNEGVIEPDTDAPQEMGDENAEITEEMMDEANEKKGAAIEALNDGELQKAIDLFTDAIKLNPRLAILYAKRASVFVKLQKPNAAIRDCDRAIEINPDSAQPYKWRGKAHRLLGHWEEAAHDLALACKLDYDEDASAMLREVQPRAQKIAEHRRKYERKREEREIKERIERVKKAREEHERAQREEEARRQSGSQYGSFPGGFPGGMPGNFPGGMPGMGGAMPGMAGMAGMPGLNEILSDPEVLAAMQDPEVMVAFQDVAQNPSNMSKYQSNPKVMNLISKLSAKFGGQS
Nature of the assay: co-IP; acinar cell-derived proteins precipitated with anti-St13 or anti-Sdf2l1 antibodies.

Assay [2] deals with T2, Stromal cell-derived factor 2-like 1 (Sdf2l1) (mouse (endogenous in pancreatic acinar cells of PRSS1Tg mice)) (UniProt Q9ESP1).
T2 sequence: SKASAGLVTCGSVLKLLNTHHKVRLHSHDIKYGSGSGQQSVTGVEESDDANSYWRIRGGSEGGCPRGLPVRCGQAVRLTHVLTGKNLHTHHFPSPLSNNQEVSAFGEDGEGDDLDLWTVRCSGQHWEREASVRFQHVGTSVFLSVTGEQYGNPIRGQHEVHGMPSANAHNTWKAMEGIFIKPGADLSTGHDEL
The description is as above.

No constants are given. Whether binding was seen depends on the method and setting. Binding seen in cells or lysates may run through a third protein. Some results given as binding are weak or reduced against the parent protein; the word gives no strength.

B1: Stromal cell-derived factor 2-like 1 (Sdf2l1) (protein, UniProt Q9ESP1 29-221)
chain: T2 sequence
In the case of B1, the binding result in assay [1] is listed as “binds”.

B2: St13 (protein, UniProt Q99L47 1-371)
chain: T1 sequence
On to B2, for which the binding entry in assay [2] was “binds”.
